{
  "sequences": {"note": "By UniProt entry, the sequences of proteins in these tests, tags left out. Where a name states a change or a piece, a line headed by the entry shows the natural chain unless it says otherwise.", "UniProt Q5Z7R9": "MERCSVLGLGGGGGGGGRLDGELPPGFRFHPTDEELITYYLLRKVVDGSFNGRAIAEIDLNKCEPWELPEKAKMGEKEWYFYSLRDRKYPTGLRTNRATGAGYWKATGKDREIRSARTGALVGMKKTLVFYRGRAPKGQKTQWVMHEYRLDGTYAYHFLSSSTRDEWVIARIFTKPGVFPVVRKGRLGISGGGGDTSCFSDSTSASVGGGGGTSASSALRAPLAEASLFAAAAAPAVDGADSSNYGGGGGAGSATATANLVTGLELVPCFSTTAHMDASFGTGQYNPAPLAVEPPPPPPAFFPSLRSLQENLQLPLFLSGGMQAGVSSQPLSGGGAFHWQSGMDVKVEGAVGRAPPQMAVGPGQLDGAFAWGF", "UniProt A0A0P0XHX1": "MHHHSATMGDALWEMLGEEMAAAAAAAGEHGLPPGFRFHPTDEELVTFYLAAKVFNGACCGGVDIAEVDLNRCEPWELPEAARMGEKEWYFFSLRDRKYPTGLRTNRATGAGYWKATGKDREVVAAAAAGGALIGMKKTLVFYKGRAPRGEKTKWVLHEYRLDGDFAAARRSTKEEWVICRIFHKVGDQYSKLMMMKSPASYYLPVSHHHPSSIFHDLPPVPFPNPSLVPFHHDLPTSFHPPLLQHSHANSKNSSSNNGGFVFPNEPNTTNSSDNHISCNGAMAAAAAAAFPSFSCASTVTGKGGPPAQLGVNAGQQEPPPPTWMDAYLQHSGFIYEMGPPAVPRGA"},
  "source": "paper PMC7821251",
  "molecular_target": "OsCUC1 (BiFC fusion) (rice (Oryza sativa)) (UniProt Q5Z7R9)",
  "assay": "split reporter; BiFC of rice proteins; p35S-Vn and p35S-Vc fusions co-expressed in rice protoplasts; confocal microscopy",
  "note": "No constants are given. Whether binding was seen depends on the method and setting. In cells and extracts the contact can be indirect. Binding can be weak; no strength is given.",
  "data": [
    {"substance": "OsCUC3 (BiFC fusion) (from UniProt A0A0P0XHX1)", "values": [
      {"measurement": "binding", "value": "binds"}
    ]}
  ]
}
